Data source: PubChem BioAssay AID686938 (Drosophila RNAi Screening Center, 2013)

Assay: 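Knock-downs reducing store-operated calcium influx in Drosophila cells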 (primary screen)
Cell system: Drosophila S2R+ cells
Reagents: long dsRNA against Drosophila genes, about 0.25 µg dsRNA per well, roughly 10,000 cells
Duration: 5 days of knock-down before the calcium assay
Challenge: thapsigargin (SERCA pump blocker) to empty calcium stores; entry signal taken 4 min after adding it
Read-out: 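Per-well fluo-4 fluorescence in two replicates, unnormalised, measured in resting cells and 4 min after store depletion by the SERCA blocker thapsigargin; ratio of the two present in few wells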
Scale: calcium entry signal: higher = stronger calcium signal after store depletion; entry to resting ratio: higher = more calcium entry relative to resting level; resting calcium signal: higher = higher resting calcium signal
Rule for the call: 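Hit if the duplicate-averaged plate z-score for entry over resting signal is under −3; wells with weak total dye signal (Fmax z < −2) or more than 5 off-targets removed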
Calls: active = strongly reduced calcium entry; inactive = no strong reduction
In all, the deposit lists about 23,000 reagents; below is an unselected part of those with a known target gene and a result. In the full data, 75 (0.33%) were called active. 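Raw plate signals without normalisation; calls rest on plate z-scores that were not deposited; ratio present for only 364 wells.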 Reagents against one gene are numbered here. Names joined by + are all predicted targets of the reagent. The record does not give: the dose of the treatment.

| gene | dsRNA no. | calcium entry signal, replicate 1 (fluorescence units) | calcium entry signal, replicate 2 (fluorescence units) | entry to resting ratio | resting calcium signal, replicate 1 (fluorescence units) | resting calcium signal, replicate 2 (fluorescence units) | Outcome |
| --- | --- | --- | --- | --- | --- | --- | --- |
| CR32511 (pseudo) | 1 | 6.99e7 | 2.93e7 | – | 2.75e7 | 1.57e7 | inactive |
| Mis12 | 1 | 3.05e7 | 3.47e7 | – | 1.68e7 | 1.78e7 | inactive |
| CG40551 (retired record) | 1 | 4.30e7 | 3.61e7 | – | 2.12e7 | 1.71e7 | inactive |
| CG31141 | 1 | 3.37e7 | 3.79e7 | – | 1.68e7 | 1.85e7 | inactive |
| CG7166 | 1 | 3.40e7 | 4.49e7 | – | 1.64e7 | 1.98e7 | inactive |
| Phlpp (PH domain leucine-rich repeat protein phosphatase) | 1 | 4.06e7 | 4.42e7 | – | 2.09e7 | 1.94e7 | inactive |
| Phlpp (PH domain leucine-rich repeat protein phosphatase) | 2 | 3.55e7 | 3.72e7 | – | 1.80e7 | 1.87e7 | inactive |
| nur (nemuri) | 1 | 4.95e7 | 3.52e7 | – | 2.57e7 | 1.61e7 | inactive |
| Wdr33 (WD repeat domain 33) | 1 | 2.42e7 | 2.99e7 | – | 1.09e7 | 1.44e7 | inactive |
| mGluR (metabotropic Glutamate Receptor) | 1 | 3.57e7 | 4.92e7 | 2 | 1.83e7 | 2.06e7 | inactive |
| Prx4 (Peroxiredoxin 4) | 1 | 3.98e7 | 3.48e7 | – | 2.03e7 | 1.68e7 | inactive |
| usp (ultraspiracle) | 1 | 6.03e7 | 6.56e7 | 2.1 | 2.86e7 | 2.71e7 | inactive |

Entries listed so far whose target name starts with C or c (4):
| gene | dsRNA no. | calcium entry signal, replicate 1 (fluorescence units) | calcium entry signal, replicate 2 (fluorescence units) | entry to resting ratio | resting calcium signal, replicate 1 (fluorescence units) | resting calcium signal, replicate 2 (fluorescence units) | Outcome |
| --- | --- | --- | --- | --- | --- | --- | --- |
| CR32511 (pseudo) | 1 | 6.99e7 | 2.93e7 | – | 2.75e7 | 1.57e7 | inactive |
| CG40551 (retired record) | 1 | 4.30e7 | 3.61e7 | – | 2.12e7 | 1.71e7 | inactive |
| CG31141 | 1 | 3.37e7 | 3.79e7 | – | 1.68e7 | 1.85e7 | inactive |
| CG7166 | 1 | 3.40e7 | 4.49e7 | – | 1.64e7 | 1.98e7 | inactive |

The listing continues.
| gene | dsRNA no. | calcium entry signal, replicate 1 (fluorescence units) | calcium entry signal, replicate 2 (fluorescence units) | entry to resting ratio | resting calcium signal, replicate 1 (fluorescence units) | resting calcium signal, replicate 2 (fluorescence units) | Outcome |
| --- | --- | --- | --- | --- | --- | --- | --- |
| CG34164 | 1 | 3.52e7 | 2.02e7 | – | 1.69e7 | 9.71e6 | inactive |
| CG17186 | 1 | 4.43e7 | 4.06e7 | – | 4.61e7 | 1.70e7 | inactive |
| CG31019 | 1 | 2.42e7 | 3.18e7 | – | 1.16e7 | 1.26e7 | inactive |
| CG14160 | 1 | 2.67e7 | 3.45e7 | – | 1.41e7 | 1.54e7 | inactive |
| asRNA:CR42743 + CG34162 | 1 | 3.48e7 | 4.32e7 | – | 1.85e7 | 1.91e7 | inactive |
| Ssl1 (Suppressor of stem-loop mutation) | 1 | 4.04e7 | 4.56e7 | – | 1.83e7 | 3.50e7 | inactive |
| Ucp4B + asRNA:CR43465 | 1 | 3.61e7 | 4.06e7 | – | 1.72e7 | 1.90e7 | inactive |
| SmD3 (Small ribonucleoprotein particle protein SmD3) | 1 | 1.43e7 | 3.70e7 | – | 1.04e7 | 1.67e7 | inactive |
| CG8160 | 1 | 3.74e7 | 5.28e7 | – | 1.93e7 | 2.76e7 | inactive |
| CG8160 | 2 | 4.90e7 | 3.54e7 | – | 2.73e7 | 1.73e7 | inactive |
| DIP-zeta (Dpr-interacting protein zeta) | 1 | 3.03e7 | 4.97e7 | – | 1.53e7 | 2.13e7 | inactive |
| DIP-zeta (Dpr-interacting protein zeta) | 2 | 2.95e7 | 2.12e7 | – | 1.52e7 | 1.13e7 | inactive |
| DIP-zeta (Dpr-interacting protein zeta) | 3 | 2.36e7 | 4.10e7 | – | 1.31e7 | 1.76e7 | inactive |
